## Screening data

The results are deposited in PubChem (AID1159506; NCATS, 2015).

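Genome-wide siRNA knockdown in TC32 Ewing sarcoma cells, comparing luciferase light from an NR0B1-promoter reporter with a CMV-promoter reporter 48 hours after transfection. Each siRNA was applied at 20 nM. A z-score of the log NR0B1-over-CMV signal, less the median of siRNAs with the same seed; more negative means a stronger specific loss of the NR0B1 reporter.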

This is part of the screen; most of the strongest results are not listed here. Sequences are the guide (antisense) strand, without overhang.

siRNA	gene	seed-corrected z-score
UUCAGGGCGAUGUUGAUGG	PLOD1	-1.068
UAUAGCAGCUUGUAGAUGC	BEST1	-0.2193
UUCCGUUGUAUUAUGUGGG	ZC2HC1C	0.3438
UUCCAUUCUAUUCCGACUU	COX7B	-0.006012
UGUCGUGUAAGAUUUCCUC	CCDC153	-0.3411
UAGGUGUAGUGAGCCAGAC	KANK3	-0.1474
UAGUUUAAAGUUUUAGUCC	POU4F2	1.516
UAAGAGAACCCUCAUAGCC	RBPMS	-0.04531
UUCGUAACACCAAGUAUUG	PTRHD1	0.2979
UCCUUCACGAGGUCUAUGC	B4GALNT3	0.4746
UCACCUUCUGGAAUCGCCG	TBC1D10B	0.1039
UAUGGAUGACUUGAUGCUC	PPFIA3	0.207
AUGGUAGCAGGUGCAUUCA	FAM25E	-0.9833
UUUGGAAAAACUUAUUCCG	MICALL2	0.337
UCAUCUAUGAUUUCCAUCU	CRYBB2	0.3029
UUUAAUUUUACCACAACUG	LSM6	-0.1791
UCUGGAAUAUCUCCUGUUC	CCDC24	-1.58
UGAAGUCUGAUCUCCACCC	PDZK1	1.715
UAGUCUUUCACAGUGCGGA	CABP1	0.06274
UGAGGGCAUAACCCAGUGU	CHCHD2P10	-0.886
UCUGAUAGGAGGAUGAUGC	DFFA	-0.6168
UACAAAACUAGUUAAAUUG	LOC401220	1.342
AUAGUCUCUACUGUGACGG	LRRC4C	-0.3776
UCUGUAUCCUCCUUCAGCU	RBM19	0.4929
AAUCGAACUUCAAGCAUCG	STXBP5	-0.1985
UUUUCGUGAAAGUCAUUUC	KY	0.1761
UCUCAUUUAGGAUCUUCUC	PLK3	-0.08259
UUUCGUAUCCCUUUGAUAG	OR5H6	0.8851
UGAGUCCCACUAGAAAGGC	GCOM2	0.0631
UUAGAAUCAUGCAUCACAG	HERC6	-0.1342
UUACGGUGCUUAGACAUCC	CTSH	0.6531
UCUGAAAUCCUCAUGAUCC	ACTN2	0.7235
UAACGGUGCUCAUACAGCC	TGIF1	0.6155
UUUGUUUGUAUUAGUAACG	NACC2	1.127
UUGUAGUCGACCAUCAUGC	CLASRP	0.7828
UGUCCACUCAGGGCAAUGC	GDF1	-0.09699
AAUCCUAGAGAUGAUAUCC	FAM186A	0.2731
AUGGUGGUGAGGUCGGUGU	YIF1B	-1.493
UUCUUGACAAACAGGGCCG	CDC42EP4	-0.1351
UAAUCCACAUUCACUGAGU	NDUFA4	0.7466
AAACCGUCAAAGAUAUUCC	SCN1A	-0.7052
AAUAUUUUAUGUCUCGCUC	ZNF257	0.6442
UGAACUUCUUCAAUCUUUC	PRMT3	-0.03361
UGACUUAAGGUAUCGAUCC	RPGRIP1L	0.9152
UAGACAUCAAAGGUCGUCU	CEL	-0.06222
UUUGCAUUGGGCUUCACCG	LGALS3	-0.8656
UCUUCUAUAAGCAACCCAG	OR5B17	-0.2956
AAAGCAGUCCGUGCGGAUC	ACVRL1	0.4513
UUCUUACUGAACGAUUUCC	ZNF175	-0.1436
UUUAUUUCCAACUCGAGGG	CLDN9	0.1642
ACAGGUUCUCUCGAAGAGC	TUBG1	-0.3329
UGUCAUCCCAGGCUUGAUC	METAP2	-0.8384
UAAGUUCUGAUGUACGACC	ZNF565	-0.5692
AAUCUAGUAAUUCUGAUUG	TXNDC11	-0.269
UGAGCUAAUUUUCUCAUCU	TEKT5	0.4745
UUGCUUAUCUCCUCAGUGG	ATAD3B	-0.8068
AAUGUCAUAGGAGUACUCC	FGFR2	-0.06426
UACCGCAAAAAUUAGAGCC	PROM1	-0.5748
UUCUUUACUAUAGUAGUGG	MADD	0.5781
UCUGCGUAGAACAUAACUG	KCND2	-0.704
AUUGAACACUGCGUUGUCC	GAS8-AS1	0.3036
UUCUCGUACUCAAUGAAGC	PUF60	-0.7744
UUAAUACCUUCAUCAGUUC	PARVA	-0.07665
UUGACUACUAGCUAGAGCC	PIGK	0.2756
UUAUAGCCUCGAACCUUGG	TBCD	0.345
UACGGUCAAGUAACUCUCC	RPS6KA6	-0.5774
UUCCGGAUAGUUCCAUUGG	IDH2	0.9012
UCCAAUUACUCCAAUAUCC	LEPR	0.1865
UCAUCAAUCAUGGAGCGGC	NCDN	0.02299
UGAUUGGAGACGUCCAUAG	GSTM4	0.144
AUUUGUAGUAGUGGGAUGC	KSR2	-0.1659
UAUGAUCUUCCGUCCAACC	SLC22A24	-0.05246

Some entries from above, unchanged:

* UUCCAUUCUAUUCCGACUU against COX7B : seed-corrected z-score -0.006012
* UUGCUUAUCUCCUCAGUGG against ATAD3B : seed-corrected z-score -0.8068
* AUAGUCUCUACUGUGACGG against LRRC4C : seed-corrected z-score -0.3776
* UAAGUUCUGAUGUACGACC against ZNF565 : seed-corrected z-score -0.5692
* UUUCGUAUCCCUUUGAUAG against OR5H6 : seed-corrected z-score 0.8851
* UAAUCCACAUUCACUGAGU against NDUFA4 : seed-corrected z-score 0.7466
* UAUAGCAGCUUGUAGAUGC against BEST1 : seed-corrected z-score -0.2193